PubChem BioAssay AID602196, INSERM | 2012
Purpose: 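Modifiers of cisplatin sensitivity in A549 cells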. Cell system: human A549 lung cancer cells. Reagent: siRNA pair against human genes. Timing: 48 h transfection before cisplatin; time from cisplatin to read-out not stated. Treatment: cisplatin at a dose killing half of control-siRNA cells; exact dose and duration not given. Measured: 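Shift in cisplatin death relative to control siRNA, from -50 (all cells die) to +50 (no cells die); siRNAs harmful on their own scored 0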. Reading the numbers: two-siRNA summed score (-2 to +2): higher = both siRNAs protect from cisplatin killing; -2 means both sensitise; mean protection from cisplatin (shift in death) and protection from cisplatin (shift in death), siRNA C and protection from cisplatin (shift in death), siRNA D: higher = protection from cisplatin killing. Call rule: 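siRNAs harmful alone (LDH or WST-1) get 0; others get +1 for less and -1 for more cisplatin killing; genes are active when the two siRNAs give the same sign, summing to ±2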. Meaning of the calls: active = both siRNAs shift cisplatin killing the same way; inactive = no consistent shift, or siRNA harmful alone.
The whole screen tested about 23,000 reagents; this is a part drawn at random. Over the whole deposit, 455 (2%) got an active call. 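Active includes both protection and sensitisation; some change values fall well beyond the stated -50 to +50 range.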 The numbers tell different reagents against one gene apart. Not given: the amount of reagent.

The opening 2 entries as a preview:
| target | reagent | two-siRNA summed score (-2 to +2) | mean protection from cisplatin (shift in death) (%) | protection from cisplatin (shift in death), siRNA C (%) | protection from cisplatin (shift in death), siRNA D (%) | Call |
| --- | --- | --- | --- | --- | --- | --- |
| ZNF337 (zinc finger protein 337) | 1 | 0 | -3.5 | -1.1 | -5.9 | inactive |
| RCE1 (Ras converting CAAX endopeptidase 1) | 1 | 0 | -7.9 | -6.2 | -9.7 | inactive |

The list itself, from the first entry:
| target | reagent | two-siRNA summed score (-2 to +2) | mean protection from cisplatin (shift in death) (%) | protection from cisplatin (shift in death), siRNA C (%) | protection from cisplatin (shift in death), siRNA D (%) | Call |
| --- | --- | --- | --- | --- | --- | --- |
| ZNF337 (zinc finger protein 337) | 1 | 0 | -3.5 | -1.1 | -5.9 | inactive |
| RCE1 (Ras converting CAAX endopeptidase 1) | 1 | 0 | -7.9 | -6.2 | -9.7 | inactive |
| EIF4G2 (eukaryotic translation initiation factor 4 gamma 2) | 1 | 0 | 0.8 | -5.7 | 7.2 | inactive |
| NELFA (negative elongation factor complex member A) | 1 | 0 | 11.7 | 13.7 | 9.8 | inactive |
| SENP3 (SUMO specific peptidase 3) | 1 | 0 | 2.6 | -0.6 | 5.8 | inactive |
| MMP25 (matrix metallopeptidase 25) | 1 | -2 | -27.3 | -19.5 | -35.1 | active |
| MMP25 (matrix metallopeptidase 25) | 2 | 0 | 3.2 | -3.1 | 9.4 | inactive |
| SPATA8 (spermatogenesis associated 8) | 1 | 0 | 24.7 | 18.6 | 30.7 | inactive |
| LOC388538 | 1 | 1 | 21.3 | 20.7 | 22 | inactive |
| MRPL13 (mitochondrial ribosomal protein L13) | 1 | 0 | 2.4 | -1.1 | 5.8 | inactive |
| MGC17403 | 1 | 1 | 12.1 | 10.9 | 13.2 | inactive |
| PLS1 (plastin 1) | 1 | 0 | 5.1 | 2.9 | 7.4 | inactive |
| BAGE2 (BAGE family member 2 (pseudogene)) | 1 | 0 | -2.8 | 4.7 | -10.3 | inactive |
| ADAM23 (ADAM metallopeptidase domain 23) | 1 | -1 | -10.3 | 2.2 | -22.8 | inactive |
| THAP3 (THAP domain containing 3) | 1 | 0 | 2.4 | 12.9 | -8.2 | inactive |
| FSD1 (fibronectin type III and SPRY domain containing 1) | 1 | 0 | 45.5 | 10 | 81 | inactive |
| MYO1G (myosin IG) | 1 | 0 | 0.4 | 11.3 | -10.4 | inactive |
| LOC442431 | 1 | 0 | 2.2 | 2.2 | 2.2 | inactive |
| OAT (ornithine aminotransferase) | 1 | 1 | 15.2 | 11.1 | 19.3 | inactive |
| CRTC1 (CREB regulated transcription coactivator 1) | 1 | 0 | 0.4 | -9.1 | 9.8 | inactive |
| LOC388954 | 1 | -1 | 12.6 | 37.6 | -12.4 | inactive |
| YJU2B (YJU2 splicing factor homolog B) | 1 | 0 | -4 | -19.9 | 11.8 | inactive |
| UTY | 1 | -1 | -5.4 | -15.5 | 4.7 | inactive |
